Data taken from the supplement of paper PMC10849652.
The other results are listed elsewhere or left out.

Sequences of proteins named here, by UniProt entry; tags and fusion partners are left off. A change or cut given only in a name is not applied to a line headed by its entry.
UniProt Q8WZA0: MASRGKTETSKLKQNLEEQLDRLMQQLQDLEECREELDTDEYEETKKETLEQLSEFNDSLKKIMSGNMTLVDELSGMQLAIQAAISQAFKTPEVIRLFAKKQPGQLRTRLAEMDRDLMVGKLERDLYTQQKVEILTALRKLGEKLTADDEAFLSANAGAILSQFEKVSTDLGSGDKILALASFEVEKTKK
UniProt P48449: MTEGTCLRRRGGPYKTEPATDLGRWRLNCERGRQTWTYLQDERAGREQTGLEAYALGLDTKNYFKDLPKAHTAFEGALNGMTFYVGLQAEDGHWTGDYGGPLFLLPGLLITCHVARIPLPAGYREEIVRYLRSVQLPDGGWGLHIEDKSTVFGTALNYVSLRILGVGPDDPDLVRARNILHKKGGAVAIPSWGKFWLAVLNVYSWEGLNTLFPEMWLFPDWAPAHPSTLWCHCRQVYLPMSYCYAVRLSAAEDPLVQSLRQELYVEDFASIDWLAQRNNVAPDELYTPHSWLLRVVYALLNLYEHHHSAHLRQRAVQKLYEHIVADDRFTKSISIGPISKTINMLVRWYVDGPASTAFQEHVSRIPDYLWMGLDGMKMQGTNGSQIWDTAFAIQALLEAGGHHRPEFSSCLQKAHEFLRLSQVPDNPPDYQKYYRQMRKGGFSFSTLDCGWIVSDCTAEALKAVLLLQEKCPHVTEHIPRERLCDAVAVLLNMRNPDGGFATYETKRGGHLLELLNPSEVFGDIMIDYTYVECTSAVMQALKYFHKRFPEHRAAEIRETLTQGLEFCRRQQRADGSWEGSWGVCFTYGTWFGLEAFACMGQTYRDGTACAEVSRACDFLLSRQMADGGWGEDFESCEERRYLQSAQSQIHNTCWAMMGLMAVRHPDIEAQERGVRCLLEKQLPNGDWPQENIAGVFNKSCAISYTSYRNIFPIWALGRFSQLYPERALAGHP
UniProt Q96A72, whole entry, looked up: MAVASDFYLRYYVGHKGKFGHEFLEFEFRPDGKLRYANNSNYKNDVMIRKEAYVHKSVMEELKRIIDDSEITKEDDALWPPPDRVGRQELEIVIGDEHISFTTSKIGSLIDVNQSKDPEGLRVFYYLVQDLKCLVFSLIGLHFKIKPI
UniProt P43362: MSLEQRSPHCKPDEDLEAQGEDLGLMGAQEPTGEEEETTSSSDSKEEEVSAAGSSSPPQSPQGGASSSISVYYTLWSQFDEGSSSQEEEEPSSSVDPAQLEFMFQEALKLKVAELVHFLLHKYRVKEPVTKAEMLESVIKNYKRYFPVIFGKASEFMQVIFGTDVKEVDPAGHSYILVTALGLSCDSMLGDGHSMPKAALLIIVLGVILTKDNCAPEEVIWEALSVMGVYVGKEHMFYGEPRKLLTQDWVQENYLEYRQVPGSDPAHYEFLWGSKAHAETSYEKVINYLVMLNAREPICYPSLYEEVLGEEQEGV
UniProt Q9UFC0: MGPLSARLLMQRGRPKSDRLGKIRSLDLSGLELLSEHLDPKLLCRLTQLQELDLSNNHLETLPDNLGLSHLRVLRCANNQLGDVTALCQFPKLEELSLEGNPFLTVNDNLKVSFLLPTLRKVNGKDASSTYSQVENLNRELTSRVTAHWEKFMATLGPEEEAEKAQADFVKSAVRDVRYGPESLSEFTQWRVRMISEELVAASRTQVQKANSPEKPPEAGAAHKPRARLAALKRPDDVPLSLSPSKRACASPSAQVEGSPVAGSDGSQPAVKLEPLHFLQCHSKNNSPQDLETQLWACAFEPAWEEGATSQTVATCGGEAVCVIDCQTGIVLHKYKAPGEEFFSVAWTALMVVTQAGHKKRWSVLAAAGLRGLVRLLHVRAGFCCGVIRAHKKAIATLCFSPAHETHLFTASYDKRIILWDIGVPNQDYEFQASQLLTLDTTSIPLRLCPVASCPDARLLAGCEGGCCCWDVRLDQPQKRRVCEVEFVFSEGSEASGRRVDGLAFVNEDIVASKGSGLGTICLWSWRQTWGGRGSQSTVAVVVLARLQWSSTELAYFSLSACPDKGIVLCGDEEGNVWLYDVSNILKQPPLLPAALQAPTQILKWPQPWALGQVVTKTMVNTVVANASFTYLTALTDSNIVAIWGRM
UniProt Q7L1W4: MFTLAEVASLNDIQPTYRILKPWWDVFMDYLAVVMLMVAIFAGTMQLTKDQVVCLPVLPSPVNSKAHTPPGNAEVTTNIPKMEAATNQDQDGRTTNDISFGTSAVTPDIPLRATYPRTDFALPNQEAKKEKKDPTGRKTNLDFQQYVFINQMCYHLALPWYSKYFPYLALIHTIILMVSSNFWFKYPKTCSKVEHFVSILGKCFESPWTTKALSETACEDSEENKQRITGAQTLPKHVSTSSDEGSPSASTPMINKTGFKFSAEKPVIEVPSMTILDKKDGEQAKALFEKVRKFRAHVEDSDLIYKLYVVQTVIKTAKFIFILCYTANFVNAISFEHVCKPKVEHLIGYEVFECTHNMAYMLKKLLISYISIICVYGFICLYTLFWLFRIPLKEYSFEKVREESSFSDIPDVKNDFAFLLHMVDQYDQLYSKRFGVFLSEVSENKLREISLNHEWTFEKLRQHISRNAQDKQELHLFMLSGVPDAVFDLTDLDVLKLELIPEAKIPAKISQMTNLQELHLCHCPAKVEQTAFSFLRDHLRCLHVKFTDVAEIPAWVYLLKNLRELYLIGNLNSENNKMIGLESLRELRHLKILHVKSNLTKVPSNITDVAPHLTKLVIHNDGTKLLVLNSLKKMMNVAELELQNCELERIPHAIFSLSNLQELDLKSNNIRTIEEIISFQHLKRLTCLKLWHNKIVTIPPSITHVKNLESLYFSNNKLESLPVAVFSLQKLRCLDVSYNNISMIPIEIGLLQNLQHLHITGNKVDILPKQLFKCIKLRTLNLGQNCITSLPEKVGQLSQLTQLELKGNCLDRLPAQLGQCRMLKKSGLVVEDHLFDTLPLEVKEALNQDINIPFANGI
UniProt P49137, whole entry, looked up: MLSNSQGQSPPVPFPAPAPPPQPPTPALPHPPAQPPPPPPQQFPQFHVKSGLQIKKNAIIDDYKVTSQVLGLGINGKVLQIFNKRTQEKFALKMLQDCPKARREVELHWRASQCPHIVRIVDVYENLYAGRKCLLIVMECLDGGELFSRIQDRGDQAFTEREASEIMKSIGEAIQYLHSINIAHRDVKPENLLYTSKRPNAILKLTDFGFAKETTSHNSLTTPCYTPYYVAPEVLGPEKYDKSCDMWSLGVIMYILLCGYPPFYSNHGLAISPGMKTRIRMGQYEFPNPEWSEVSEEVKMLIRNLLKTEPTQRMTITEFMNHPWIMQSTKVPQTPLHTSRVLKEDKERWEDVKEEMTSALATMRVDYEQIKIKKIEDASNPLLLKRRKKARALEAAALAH
UniProt P49006: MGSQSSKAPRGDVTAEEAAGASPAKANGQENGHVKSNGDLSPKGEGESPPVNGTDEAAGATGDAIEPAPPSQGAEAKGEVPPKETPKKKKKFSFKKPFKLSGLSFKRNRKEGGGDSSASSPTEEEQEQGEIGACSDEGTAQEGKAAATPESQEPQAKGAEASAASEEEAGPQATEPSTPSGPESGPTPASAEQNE
UniProt Q8WXG6, whole entry, looked up: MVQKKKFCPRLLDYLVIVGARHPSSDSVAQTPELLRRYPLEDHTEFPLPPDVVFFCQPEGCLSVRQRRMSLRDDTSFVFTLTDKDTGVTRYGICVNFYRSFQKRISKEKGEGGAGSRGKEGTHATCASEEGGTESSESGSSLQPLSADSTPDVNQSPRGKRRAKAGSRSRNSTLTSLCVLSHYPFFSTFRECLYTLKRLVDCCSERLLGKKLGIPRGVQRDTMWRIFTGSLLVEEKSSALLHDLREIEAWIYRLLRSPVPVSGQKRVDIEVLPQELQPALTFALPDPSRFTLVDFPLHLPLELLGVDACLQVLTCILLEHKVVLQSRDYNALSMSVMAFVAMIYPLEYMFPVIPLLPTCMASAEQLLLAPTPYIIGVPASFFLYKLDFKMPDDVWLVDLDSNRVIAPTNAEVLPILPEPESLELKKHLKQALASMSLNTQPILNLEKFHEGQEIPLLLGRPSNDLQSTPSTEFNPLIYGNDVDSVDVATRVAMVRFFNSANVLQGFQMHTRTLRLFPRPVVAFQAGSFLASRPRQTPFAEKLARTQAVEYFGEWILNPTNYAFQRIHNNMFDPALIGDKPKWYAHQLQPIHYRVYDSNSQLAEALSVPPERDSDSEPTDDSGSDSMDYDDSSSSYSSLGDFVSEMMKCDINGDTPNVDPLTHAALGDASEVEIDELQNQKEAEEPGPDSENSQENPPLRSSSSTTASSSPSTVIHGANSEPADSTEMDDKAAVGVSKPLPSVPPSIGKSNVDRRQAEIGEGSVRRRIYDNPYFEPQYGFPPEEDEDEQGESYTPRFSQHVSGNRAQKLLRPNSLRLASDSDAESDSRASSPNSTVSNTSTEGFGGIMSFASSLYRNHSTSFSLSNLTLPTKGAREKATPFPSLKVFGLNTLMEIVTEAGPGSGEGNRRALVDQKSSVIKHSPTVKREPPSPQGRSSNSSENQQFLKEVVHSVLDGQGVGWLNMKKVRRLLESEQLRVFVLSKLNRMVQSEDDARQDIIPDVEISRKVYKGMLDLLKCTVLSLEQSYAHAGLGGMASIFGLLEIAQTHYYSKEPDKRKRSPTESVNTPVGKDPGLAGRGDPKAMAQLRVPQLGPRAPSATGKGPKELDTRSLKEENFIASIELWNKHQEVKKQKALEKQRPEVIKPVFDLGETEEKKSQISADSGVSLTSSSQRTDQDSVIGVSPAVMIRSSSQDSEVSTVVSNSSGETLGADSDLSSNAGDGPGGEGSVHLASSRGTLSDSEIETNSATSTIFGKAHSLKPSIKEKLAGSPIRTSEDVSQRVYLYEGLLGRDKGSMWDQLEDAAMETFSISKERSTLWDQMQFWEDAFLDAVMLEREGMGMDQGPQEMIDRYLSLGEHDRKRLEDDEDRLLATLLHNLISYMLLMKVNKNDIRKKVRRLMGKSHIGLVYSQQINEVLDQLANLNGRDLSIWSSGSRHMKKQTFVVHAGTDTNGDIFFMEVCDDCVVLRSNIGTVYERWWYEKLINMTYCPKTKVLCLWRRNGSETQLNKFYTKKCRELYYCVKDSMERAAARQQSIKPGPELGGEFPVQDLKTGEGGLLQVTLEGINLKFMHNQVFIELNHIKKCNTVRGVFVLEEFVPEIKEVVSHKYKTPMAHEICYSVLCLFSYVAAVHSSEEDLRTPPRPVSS
UniProt Q86X29: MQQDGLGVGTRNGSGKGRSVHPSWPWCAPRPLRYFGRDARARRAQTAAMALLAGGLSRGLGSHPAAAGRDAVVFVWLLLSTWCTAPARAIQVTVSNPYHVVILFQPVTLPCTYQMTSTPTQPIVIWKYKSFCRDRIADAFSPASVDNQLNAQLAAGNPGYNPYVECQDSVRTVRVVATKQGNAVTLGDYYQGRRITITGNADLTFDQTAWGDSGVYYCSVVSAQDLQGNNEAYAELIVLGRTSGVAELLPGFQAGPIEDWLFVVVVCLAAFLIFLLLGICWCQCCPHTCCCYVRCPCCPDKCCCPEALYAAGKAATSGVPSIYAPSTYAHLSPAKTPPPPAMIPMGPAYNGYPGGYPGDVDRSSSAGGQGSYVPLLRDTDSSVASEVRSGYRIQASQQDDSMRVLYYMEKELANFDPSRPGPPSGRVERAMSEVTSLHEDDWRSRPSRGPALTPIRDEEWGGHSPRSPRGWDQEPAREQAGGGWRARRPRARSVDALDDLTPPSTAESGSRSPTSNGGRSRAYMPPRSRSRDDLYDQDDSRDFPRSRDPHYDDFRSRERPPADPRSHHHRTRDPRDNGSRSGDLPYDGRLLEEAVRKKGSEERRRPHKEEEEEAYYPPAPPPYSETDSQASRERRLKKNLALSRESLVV
UniProt Q8TDW0: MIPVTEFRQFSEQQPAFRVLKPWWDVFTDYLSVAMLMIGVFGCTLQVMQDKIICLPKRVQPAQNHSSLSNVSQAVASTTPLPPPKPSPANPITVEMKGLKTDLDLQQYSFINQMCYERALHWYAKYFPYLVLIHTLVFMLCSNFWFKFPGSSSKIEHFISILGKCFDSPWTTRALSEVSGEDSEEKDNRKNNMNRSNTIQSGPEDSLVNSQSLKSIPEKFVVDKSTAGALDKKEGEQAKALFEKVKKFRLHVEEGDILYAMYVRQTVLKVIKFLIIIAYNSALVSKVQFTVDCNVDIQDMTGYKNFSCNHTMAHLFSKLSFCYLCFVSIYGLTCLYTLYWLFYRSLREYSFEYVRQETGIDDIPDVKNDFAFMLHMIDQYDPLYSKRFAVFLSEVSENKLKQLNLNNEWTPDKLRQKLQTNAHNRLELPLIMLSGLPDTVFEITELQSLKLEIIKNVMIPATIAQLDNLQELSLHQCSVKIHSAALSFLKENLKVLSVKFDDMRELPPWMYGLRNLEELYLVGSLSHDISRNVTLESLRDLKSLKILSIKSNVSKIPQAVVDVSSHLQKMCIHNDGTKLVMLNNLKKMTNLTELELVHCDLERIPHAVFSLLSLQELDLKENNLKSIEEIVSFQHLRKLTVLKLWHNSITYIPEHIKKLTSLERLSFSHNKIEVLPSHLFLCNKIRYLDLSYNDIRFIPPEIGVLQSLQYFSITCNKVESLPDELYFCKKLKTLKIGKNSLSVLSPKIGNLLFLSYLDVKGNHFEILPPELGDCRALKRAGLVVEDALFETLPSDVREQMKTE

How the values were obtained:
Experiment in all cases: log2 fold change, soluble protein after heating vs DMSO (PISA); higher = thermal stabilisation; K562 cells, 10 uM, 30 min; active = over 0.2 and 3.5 SD of the protein, either way, in both replicates (recomputed)
[1] = compound: CC[C@@H]1C(=O)N(C)c2cnc(Nc3ccc(C(=O)NC4CCN(C)CC4)cc3OC)nc2N1C1CCCC1
In short: (§1)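 K562 cells (2×10^6 cells/mL) were treated with 10 μM compound for 30 min, and aliquots were heated for 3 min over 48°C-58°C. Pooled aliquots were extracted in PBS with 0.5% NP-40 at 4°C, and the supernatant after 21,000xg for 90 min was measured by TMTpro 16plex LC-MS/MS with channel sums equalised. Reported thermal stability, relative to control samples and from duplicates, is a log2 fold change.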

volasertib = compound: CC[C@@H]1C(=O)N(C)c2cnc(Nc3ccc(C(=O)N[C@H]4CC[C@H](N5CCN(CC6CC6)CC5)CC4)cc3OC)nc2N1C(C)C [volasertib]
In short: as §1

[2] = compound: CC[C@H](C)N1C=C(C2=C(C=C(C=C21)C3=CN=C(C=C3)N4CCNCC4)C(=O)NCC5=C(C=C(NC5=O)C)C)C
In short: as §1

epoxomicin = compound: CC[C@H](C)[C@@H](C(=O)N[C@@H]([C@@H](C)O)C(=O)N[C@@H](CC(C)C)C(=O)[C@]1(CO1)C)NC(=O)[C@H]([C@@H](C)CC)N(C)C(=O)C [epoxomicin]
In short: as §1

[3] = compound: CCn1c(C(=O)N(C2CC2)C2CC2)cc2c3c(ncn3C)c(Nc3cc(C)n(C)n3)nc21
In short: as §1

[4] = compound: CCn1cc(-c2ccnc3[nH]c(-c4cccc(CN(C)C)c4)cc23)c(-c2ccc(NC(=O)N(C)C)cc2)n1
In short: as §1

[5] = compound: CN(C)CC(=O)Nc1ccc2[nH]c(=O)c3ccccc3c2c1
In short: as §1

rosiglitazone = compound: CN(CCOC1=CC=C(C=C1)C[C@H]2C(=O)NC(=O)S2)C3=CC=CC=N3 (racemic) [rosiglitazone]
In short: as §1

[6] = compound: CN1C2=C(C3=C1C(=O)N(N=C3)CC4=CC(=CC=C4)N)SC(=C2)S(=O)C
In short: as §1

[7] = compound: CN1CCC(CNc2ccc3ncc(-c4cccc(OC(F)(F)F)c4)n3n2)CC1
In short: as §1

saracatinib = compound: CN1CCN(CCOc2cc(OC3CCOCC3)c3c(Nc4c(Cl)ccc5c4OCO5)ncnc3c2)CC1 [saracatinib]
In short: as §1

sotrastaurin = compound: CN1CCN(c2nc(C3=C(c4c[nH]c5ccccc45)C(=O)NC3=O)c3ccccc3n2)CC1 [sotrastaurin]
In short: as §1

alvocidib = compound: CN1CC[C@H](c2c(O)cc(O)c3c(=O)cc(-c4ccccc4Cl)oc23)[C@H](O)C1 [alvocidib]
In short: as §1

Tubastatin A = compound: CN1CCc2c(c3ccccc3n2Cc2ccc(C(=O)NO)cc2)C1 [Tubastatin A]
In short: as §1

[8] = compound: CNC(=O)C1=CC=CC=C1NC2=NC(=NC=C2Cl)NC3=C(C=C(C=C3)N4CCOCC4)OC
In short: as §1

defactinib = compound: CNC(=O)c1ccc(Nc2ncc(C(F)(F)F)c(NCc3nccnc3N(C)S(C)(=O)=O)n2)cc1 [defactinib]
In short: as §1

rucaparib = compound: CNCc1ccc(-c2[nH]c3cc(F)cc4c3c2CCNC4=O)cc1 [rucaparib]
In short: as §1

[9] = compound: CNc1nc(-c2ccc3c(N)n[nH]c3c2)cc(N2C[C@@H](C(=O)NC3CCCCC3)CC[C@H]2C)n1
In short: as §1

encorafenib = compound: COC(=O)N[C@@H](C)CNc1nccc(-c2cn(C(C)C)nc2-c2cc(Cl)cc(NS(C)(=O)=O)c2F)n1 [encorafenib]
In short: as §1

[10] = compound: COC(=O)[C@H](CCSC)NC(=O)C1=C(C=C(C=C1)NC[C@H](CS)N)C2=CC=CC=C2
In short: as §1

Measured: log2 fold change

MAN1A1 (UniProt P33908)
inactive: [1] 0.03 | volasertib -0.012 | [2] -0.028 | epoxomicin -0.018 | [3] 0 | [4] 0.041 | [5] -0.035 | rosiglitazone 0.009 | [6] -0.048 | [7] 0.079 | saracatinib 0.008 | sotrastaurin 0.022 | alvocidib 0.039 | Tubastatin A -0.012 | [8] -0.005 | defactinib 0.002 | rucaparib -0.011 | [9] -0.093 | encorafenib -0.015 | [10] -0.004

LZIC isoform 2 (UniProt Q8WZA0)
inactive: [1] 0.007 | volasertib 0.092 | [2] -0.016 | epoxomicin 0.047 | [3] 0.027 | [4] -0.023 | [5] -0.014 | rosiglitazone 0.01 | [6] -0.047 | [7] -0.102 | saracatinib 0.007 | sotrastaurin 0.043 | alvocidib -0.015 | Tubastatin A -0.015 | [8] -0.043 | defactinib -0.016 | rucaparib -0.032 | [9] -0.042 | encorafenib -0.053 | [10] -0.004

LSS (UniProt P48449)
inactive: [1] 0.024 | [2] 0.074 | epoxomicin 0.129 | [4] -0.024 | [5] 0.055 | [6] -0.025 | [7] 0.384 | saracatinib 0.172 | sotrastaurin 0.016 | Tubastatin A 0.103 | [8] -0.091 | defactinib -0.015 | [9] -0.001 | encorafenib 0.118 | [10] 0.074
active: volasertib 0.719 | rucaparib 0.595

MAGOHB (UniProt Q96A72)
inactive: [1] -0.046 | volasertib -0.096 | [2] 0.014 | epoxomicin 0.007 | [4] 0.003 | [5] 0.013 | [6] -0.039 | [7] 0.023 | saracatinib -0.047 | sotrastaurin -0.009 | Tubastatin A 0.014 | [8] -0.007 | defactinib -0.003 | rucaparib -0.021 | [9] 0.022 | encorafenib 0.019 | [10] -0.071

MAGEA9 (UniProt P43362)
inactive: [1] -0.11 | [2] -0.057 | epoxomicin -0.044 | [4] -0.088 | [5] 0.044 | [6] -0.084 | [7] -0.116 | saracatinib 0.041 | sotrastaurin -0.037 | Tubastatin A -0.038 | [8] -0.001 | defactinib -0.175 | rucaparib -0.153 | [9] 0.015 | encorafenib 0.039 | [10] -0.082
active: volasertib -0.39

MAP1LC3B2 (UniProt A6NCE7)
inactive: [1] -0.074 | volasertib -0.072 | [2] 0.05 | epoxomicin 0 | [4] 0.004 | [5] 0 | [6] -0.015 | [7] 0.108 | saracatinib 0.016 | sotrastaurin -0.115 | Tubastatin A 0.037 | [8] 0.026 | defactinib -0.015 | rucaparib 0.004 | [9] -0.015 | encorafenib 0.032 | [10] -0.048

LYPLA2 (UniProt O95372)
inactive: [1] 0.049 | volasertib -0.033 | [2] 0.018 | [4] -0.05 | [5] 0.108 | [6] -0.053 | [7] 0.098 | saracatinib -0.063 | sotrastaurin -0.039 | Tubastatin A 0.018 | [8] 0.007 | defactinib -0.09 | rucaparib -0.041 | [9] -0.01 | encorafenib -0.031 | [10] 0.087
active: epoxomicin 0.521

LRRFIP1 (UniProt Q32MZ4)
inactive: [1] 0.06 | volasertib 0.099 | [2] -0.075 | epoxomicin -0.019 | [4] 0.028 | [5] -0.004 | [6] 0.011 | [7] 0.013 | saracatinib 0.017 | sotrastaurin 0.047 | Tubastatin A -0.005 | [8] -0.009 | defactinib -0.01 | rucaparib -0.01 | [9] -0.034 | encorafenib -0.019 | [10] 0.022

MAP2K3 isoform 3 (UniProt P46734)
inactive: [1] -0.041 | volasertib -0.17 | [2] 0.09 | epoxomicin -0.035 | [4] 0.039 | [5] 0.038 | [6] -0.054 | [7] -0.121 | saracatinib 0.024 | sotrastaurin 0.017 | Tubastatin A -0.045 | [8] -0.025 | defactinib -0.063 | rucaparib 0.058 | [9] -0.061 | encorafenib -0.02 | [10] 0.003

LRWD1 (UniProt Q9UFC0)
inactive: [1] -0.313 | volasertib -0.221 | [2] 0.182 | epoxomicin -0.028 | [3] -0.042 | [5] 0.008 | rosiglitazone 0.314 | [6] -0.055 | saracatinib -0.065 | sotrastaurin -0.303 | alvocidib -0.178 | Tubastatin A 0.143 | [8] -0.013 | defactinib -0.366 | rucaparib 0.049 | [9] 0.092 | encorafenib 0.145 | [10] -0.255

LRRC8D (UniProt Q7L1W4)
inactive: [1] 0.186 | volasertib -0.005 | [2] -0.104 | epoxomicin -0.082 | [3] 0.057 | [5] 0.044 | [6] 0.171 | saracatinib -0.096 | sotrastaurin -0.146 | alvocidib 0.14 | Tubastatin A -0.001 | [8] -0.234 | defactinib 0.163 | rucaparib 0.31 | [9] 0.065 | encorafenib 0.166 | [10] 0.029

MAPKAPK2 (UniProt P49137)
inactive: [1] -0.058 | volasertib -0.059 | [2] 0.026 | epoxomicin 0.049 | [4] -0.002 | [5] 0.032 | [6] -0.007 | [7] -0.018 | saracatinib 0.077 | sotrastaurin -0.035 | Tubastatin A -0.006 | [8] -0.01 | defactinib -0.013 | rucaparib 0 | [9] -0.022 | encorafenib 0.139 | [10] 0.023

MARCKSL1 (UniProt P49006)
active: sotrastaurin 0.315
inactive: [1] -0.055 | volasertib 0.038 | [2] 0.021 | epoxomicin -0.055 | [4] -0.015 | [5] -0.044 | [6] -0.08 | [7] 0.147 | saracatinib 0.02 | Tubastatin A -0.043 | [8] 0.013 | defactinib 0.007 | rucaparib -0.035 | [9] 0.063 | encorafenib -0.04 | [10] -0.008

LTBP4 (UniProt Q8N2S1)
inactive: [1] 0.15 | volasertib 0.019 | [2] 0.329 | epoxomicin -0.059 | [3] -0.094 | [4] -0.161 | [6] -0.021 | [7] 0.135 | saracatinib 0.064 | sotrastaurin 0.08 | alvocidib 0.063 | Tubastatin A 0.113 | [8] 0.112 | rucaparib 0.046 | [9] -0.034 | encorafenib -0.004

2 consecutive records already listed:
LRRC8D (UniProt Q7L1W4)
inactive: [1] 0.186 | volasertib -0.005 | [2] -0.104 | epoxomicin -0.082 | [3] 0.057 | [5] 0.044 | [6] 0.171 | saracatinib -0.096 | sotrastaurin -0.146 | alvocidib 0.14 | Tubastatin A -0.001 | [8] -0.234 | defactinib 0.163 | rucaparib 0.31 | [9] 0.065 | encorafenib 0.166 | [10] 0.029

MAPKAPK2 (UniProt P49137)
inactive: [1] -0.058 | volasertib -0.059 | [2] 0.026 | epoxomicin 0.049 | [4] -0.002 | [5] 0.032 | [6] -0.007 | [7] -0.018 | saracatinib 0.077 | sotrastaurin -0.035 | Tubastatin A -0.006 | [8] -0.01 | defactinib -0.013 | rucaparib 0 | [9] -0.022 | encorafenib 0.139 | [10] 0.023

Additional results:

MADD isoform 2 (UniProt Q8WXG6)
inactive: [1] -0.08 | volasertib -0.28 | [2] 0.005 | epoxomicin -0.087 | [3] -0.026 | rosiglitazone -0.009 | [6] 0.097 | saracatinib -0.09 | sotrastaurin -0.178 | alvocidib 0.019 | Tubastatin A 0.068 | [8] -0.035 | rucaparib 0.274 | [9] 0.071 | encorafenib 0.078

MAGEC2 (UniProt Q9UBF1)
inactive: [1] -0.017 | volasertib -0.146 | [2] 0.028 | epoxomicin -0.062 | [4] -0.048 | [5] -0.007 | [6] -0.063 | [7] 0 | saracatinib 0.092 | sotrastaurin -0.068 | Tubastatin A -0.013 | [8] 0.015 | defactinib -0.056 | rucaparib -0.021 | [9] -0.082 | encorafenib 0.079 | [10] 0.003

LSR (UniProt Q86X29)
active: [7] 0.214
inactive: [1] 0.109 | volasertib 0.068 | [2] -0.02 | epoxomicin -0.021 | [4] 0.011 | [5] -0.033 | [6] -0.001 | saracatinib -0.003 | sotrastaurin 0.023 | Tubastatin A 0.012 | [8] -0.074 | defactinib -0.053 | rucaparib -0.023 | [9] 0.095 | encorafenib 0.042 | [10] 0.031

LRRC8C (UniProt Q8TDW0)
inactive: [1] 0.201 | volasertib 0.179 | [2] -0.053 | epoxomicin -0.145 | [3] 0.04 | [4] -0.035 | [6] 0.106 | [7] 0.041 | saracatinib 0.102 | sotrastaurin 0.016 | alvocidib -0.001 | [8] 0.009 | rucaparib 0.002 | [9] -0.073 | encorafenib 0.07
